Out of some 31,000 sequences screened, about 1,400 (4.5%) were called active.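 How the source made its calls: active means median seed-adjusted z-score above 1 or below -1; inactive means the rest.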 The list shows a part of the results.

This assay in a line: Novel Modifiers of Survival Motor Neuron (SMN) Protein: Gene Identification via Genome-wide siRNA Screen.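 Further: luminescence tracks full-length SMN protein made from the SMN2 reporter.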 As to conditions: HEK293T SMN2-luciferase reporter, siRNA knockdown, 72 h; actives lie on both sides. The method, boiled down: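 Luciferase signal, proportional to full-length SMN made from an SMN2 cDNA reporter in stable HEK293T cells, was read 72 h after siRNA reverse transfection. Values were expressed as MAD scores after non-targeting-control normalization and log10 conversion; seed analysis flagged off-targets.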
On to CGACUAACCCACGAAGUAATT against DLG2, for which the median seed-adjusted z-score was inactive: 0.133. Next, CCAGUACGGUGACAACUGUTT against CYP11B2: inactive: 0.459. Under GUGAGAAACCCAAUCCUUUTT against PAFAH1B2 stands inactive: 0.0991; under CGACGACUGUCAAUGCCUUTT against PHEX, inactive: -0.0314; under CUGUAAAUGUGAUUACUGUTT against ZNF18, inactive: -0.27. Next, CAGUGGAAUCGAUCGUAUATT against KCNJ2: inactive: -0.0834; GGAUUAUUGCUCGGCUUUATT against GBP5: inactive: -0.194; GACCGAACCUCUGAAUUUATT against CMAS: inactive: -0.491.

For CAAGCACUAUCAGAUCAAUTT against PCSK7, the median seed-adjusted z-score was inactive: 0. Next, CAGUAUAAGUGCGAUUGUATT against PTGS2: inactive: -0.21; GGCUGAGGGUGAAUCAGGATT against ARHGEF4: inactive: 0.332.

CCAUGAAUGAUACAACCGUTT against PRLR: the median seed-adjusted z-score was inactive: 0.394. For CCGGUUCUAUUUCAGCUAATT against LRIG1, the median seed-adjusted z-score was inactive: 0.102. Next, GGUUUAUUCGAGUCCGUGATT against LIG1: inactive: 0.722; GGAACAACUAAACCGCAUATT against SNAP23: inactive: 0.31; GGACAGCUUUUUCCGACCATT against BARHL2: inactive: -0.147. Under AACUCACUGCGGACCUUCATT against IGFALS stands inactive: 0.0888; under AGUUUGAGAUCGAGACAAATT against SCUBE1, inactive: 0.673. Regarding GCCACGAAAAUCAAUGAGATT against EDF1, the median seed-adjusted z-score was inactive: 0.0783. Next, GAGCACUACUUGUACAUGATT against GBF1: inactive: -0.162. Take GGAAUGUGACUACAACAAATT against S100A3: the median seed-adjusted z-score was inactive: -0.176. Under CGGUAGCACUUGACCUUUUTT against AKT1 stands inactive: -0.288; under CAUUCAGCUUGUCACGUCATT against THOC4, active: -1.54.

Consider CAAGUCCUUUUAAUCCACATT against RUNX2, for which the median seed-adjusted z-score was inactive: 0.335. Regarding AGAUCUAGUAUGAGCUUAATT against EARS2, the median seed-adjusted z-score is inactive: 0.0463. With GCACGAUUACUACUACCGATT against PNPLA1, the median seed-adjusted z-score was inactive: 0.00692. Next, AAAGACUACUAUAAAGCUUTT against ING3: inactive: 0.192; GGGCGAUUCUUUCCGCAAATT against TSHZ2: inactive: -0.361; GCAACUACGUUGACUUCUATT against CTNND2: inactive: -0.0491.

As to AAACUGACUUUGAAGUAUUTT against PRKAB1, the median seed-adjusted z-score was inactive: 0.536.

In the case of AAGGGAGUAUAUUACCAAATT against GATAD1, the median seed-adjusted z-score is inactive: 0.328.

On to GGAUUUACUUGUCGACAAATT against ZFP91, for which the median seed-adjusted z-score was inactive: 0.0597. Next, GAAGUUAACUGAUUAUCGUTT against PRDX4: inactive: -0.188; CUAUCGAUGUAAACAAUGUTT against ZNF14: inactive: -0.0802; GGACAGACACGUCAGCAAATT against TMEM171: inactive: 0.278. GGACAAGACCUGUAGUAAUTT against ITGA4: the median seed-adjusted z-score was inactive: 0.

As to GGACUUGAGUGUUCCACUUTT against ZNF471, the median seed-adjusted z-score was inactive: 0.364. Next, CUACUGUGGGUGUCGCAUATT against UQCRFS1: active: -1.28; CCAGUGCUGAAUAUUCAAATT against CEPT1: inactive: 0.328.

Regarding GAACAAUAAACGGCACUAUTT against ZNF787, the median seed-adjusted z-score was inactive: -0.0628.

As to GGUGUACUAUAUAAAAAGATT against BXDC1, the median seed-adjusted z-score is inactive: 0.173.

Take GGUUAAUAACUGCAUUGGATT against ZDHHC15: the median seed-adjusted z-score is inactive: 0.548.

As for GAAUGUAAUAGGCAGUUUATT against ZNF566, the median seed-adjusted z-score is inactive: 0.0702. Under GGGACAACAUUGUGACCUATT against CDH9 stands inactive: -0.18. Next, CCAAAUGAGUGUCACGAAUTT against ZNF490: inactive: 0.00954; CCUAUUUGGUUGUCGGAAATT against SLC16A10: inactive: -0.205.

Take GGAACGAAUUUCAUAUACATT against ETV6: the median seed-adjusted z-score was inactive: 0.0216. Next, CAAGAGCAAGCAAACCUAATT against OLR1: inactive: 0; GGAAUUUGAUAGCACUCGATT against DNAJA2: inactive: 0. Under GGACUCCCAUCAGUUCCUATT against MFSD4 stands active: -1.89; under CAGUGUGGAUACUAAUAAATT against PMVK, inactive: 0.269. Next, GCAUGAAUCGUCUGACAGATT against CA7: inactive: -0.0754; AGAAUGCCCUAAACCUUAUTT against KCNS2: inactive: 0.0597.

With GGUUCUCGCAACUAUGGAATT against CTNNAL1, the median seed-adjusted z-score was inactive: 0.229. Under CCGUGACGGUUUACUAUGATT against NUP210 stands inactive: 0.0904; under GGAUGGAAAUAGCCUUGAATT against PTGR2, inactive: 0.14.

Take CCGAAAGUGAGACUCCUAATT against CBLC: the median seed-adjusted z-score was inactive: -0.726.

For GCAAAUUAUCAGAAGAGAATT against RAD51C, the median seed-adjusted z-score was inactive: -0.0724. Next, CAAAUCCUAUAGUAUAACATT against RPS6KC1: inactive: 0.344; GAUGCAUUCGAUGACCUGATT against PTGES2: inactive: -0.02. As for CACGGUAUCUCAACCGGAATT against HGS, the median seed-adjusted z-score is active: 1.16. Next, GGAACAUGCUGGACUCCCATT against GAL3ST1: inactive: 0.263.

Take CCAUCUGUCGCAUAUCUCATT against ACOX2: the median seed-adjusted z-score is inactive: -0.545. Under GGAAGUACGAGGUCACUUATT against EPHA2 stands inactive: 0.0948; under GGUUGACAGUGUGCCUAAATT against NRIP1, inactive: 0.789; under CGAGGACAGUUCUACUAUATT against HSD3B1, inactive: -0.145.

As for CUGGAUUUACUAUAACCAATT against NME7, the median seed-adjusted z-score was inactive: -0.331.

As to CGCUCACAGUACGACUACATT against SOX9, the median seed-adjusted z-score was inactive: 0.775. Under GAGCAGGACUAAACGAAUUTT against SGK3 stands inactive: 0.178. In the case of CCGAGAUCAUGGACGCCUUTT against BOK, the median seed-adjusted z-score is inactive: 0. Under GAUUGGAACUUUCACCGAATT against NOM1 stands inactive: 0.00828. Under GGUCUUUCCAGAUACUAAATT against SMPDL3B stands inactive: 0.0704. With GAGGAAAUUUGAGAAAGUUTT against UTS2, the median seed-adjusted z-score was inactive: 0.0487. As to UCACCAUCCUGGUUGCUCUTT against GHRHR, the median seed-adjusted z-score is inactive: 0. Under GAAAGGUACUACUACUAUUTT against KLHL4 stands inactive: 0; under GGGAUGGACUUACCAGAUATT against ZNF304, inactive: -0.44. For ACGCAACCCUCAACAGCUCTT against UTS2R, the median seed-adjusted z-score is inactive: 0.0819. Next, GGACAGCUGCAAUUCCGAUTT against HECW1: inactive: -0.878.

GCAAUGCUGUUAUCAAUGATT against KIF1B: the median seed-adjusted z-score is inactive: 0.376. Under CAACCUCACUGAUCGUCAATT against HOXA11 stands inactive: -0.222. Next, CGAGAUAGUGGAUCAGCAATT against MANBA: inactive: 0.473; AAAUGUAACCUUUUGCUUUTT against DAD1: inactive: -0.45. Under GCAAGUGUAGUUUGAAAAATT against SCUBE2 stands inactive: 0.452; under CACUUAAUCUGGGCAUGAATT against ZNF334, inactive: 0.611. On to GAAAAUAAUUGAUAGAAGATT against SERBP1, for which the median seed-adjusted z-score is inactive: 0.143. Under GGGUGUCUAUGGAAUGGGATT against ME2 stands inactive: -0.0557; under GGAACUACAGAUGAAUUAATT against MMAB, inactive: 0; under CGACAACACCGUGUCCAAATT against BMP1, inactive: -0.298.

Take GAUGAACGAUUUGAACAAATT against BIN2: the median seed-adjusted z-score is inactive: 0.205. Next, CCAUGGAGUGGGCAAGUUATT against AGPS: inactive: 0.289. For AGGUGAUGCAGGACAGAAATT against COL18A1, the median seed-adjusted z-score is inactive: -0.441. Next, CCAUCCAUCAACUUCUAUATT against SAT1: inactive: -0.00791. Under GCUCUACGAAGAGACCCUATT against SERPINB5 stands inactive: -0.0181.

For GGUCCUGUUGGAGAUGAUATT against UBE2D2, the median seed-adjusted z-score was inactive: 0.574. Next, GGCUCAGAUUCGCAACAAATT against EMX2: inactive: 0.324.

GACCUAUUAUGAUGGAGCATT against SCUBE2: the median seed-adjusted z-score was inactive: 0.452. As for GGCUAUUGCACAUUAUGAATT against NAPB, the median seed-adjusted z-score is inactive: 0.716. Under CACAUGCACUAGAACGGAATT against BAZ2B stands inactive: -0.679. In the case of CGCUACCUGUCCCUGUAUATT against GPR6, the median seed-adjusted z-score is inactive: 0.

Regarding CAGCGGCAGUAUUACCCAATT against PHC3, the median seed-adjusted z-score was inactive: -0.204. Under CUGCCCAUCUUCAACCGAATT against ZDHHC1 stands inactive: 0; under ACGCAGAUUUCUACAGAAATT against COX6C, inactive: -0.0449. Under UGCGGACACUGGAAAGAAATT against ZNHIT1 stands inactive: -0.497; under CGAUUAGAAAUCAACAUGATT against MLKL, inactive: 0; under UCUUCAGUCUGGUCCCGGATT against RXFP3, inactive: -0.0651. As for CGUGUUCGGCGAGACAGAATT against HOXB6, the median seed-adjusted z-score was inactive: -0.168. Consider CAAUUACUGUUAUCGUUGUTT against PPP2CB, for which the median seed-adjusted z-score was inactive: 0.486.

Consider CAAGCAUCGUGACAGAGCATT against DDX28, for which the median seed-adjusted z-score is inactive: -0.305.

The values are drawn from PubChem BioAssay AID1347426 (Functional Genomics Laboratory (NCATS/FGL), 2020).
